Experimental data from the supplement of paper PMC10849652.
Some of the results follow.

Protein sequences, listed by entry. Tags and fused reporters are not part of them. Lines headed by an entry give the natural chain unless they say otherwise; changes in a name come on top.
UniProt O15498: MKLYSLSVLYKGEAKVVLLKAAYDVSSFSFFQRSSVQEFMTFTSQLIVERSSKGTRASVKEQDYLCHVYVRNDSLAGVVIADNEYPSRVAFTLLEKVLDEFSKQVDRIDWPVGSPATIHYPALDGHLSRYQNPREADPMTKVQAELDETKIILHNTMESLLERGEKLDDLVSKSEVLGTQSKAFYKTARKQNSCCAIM
UniProt P62258: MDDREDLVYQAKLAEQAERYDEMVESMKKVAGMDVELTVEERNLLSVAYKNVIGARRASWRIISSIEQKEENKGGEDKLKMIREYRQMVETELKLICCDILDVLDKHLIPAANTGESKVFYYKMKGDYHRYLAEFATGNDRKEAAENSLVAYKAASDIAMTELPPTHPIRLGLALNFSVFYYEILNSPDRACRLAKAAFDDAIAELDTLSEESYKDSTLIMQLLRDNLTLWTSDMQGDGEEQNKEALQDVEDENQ
UniProt Q9NUE0: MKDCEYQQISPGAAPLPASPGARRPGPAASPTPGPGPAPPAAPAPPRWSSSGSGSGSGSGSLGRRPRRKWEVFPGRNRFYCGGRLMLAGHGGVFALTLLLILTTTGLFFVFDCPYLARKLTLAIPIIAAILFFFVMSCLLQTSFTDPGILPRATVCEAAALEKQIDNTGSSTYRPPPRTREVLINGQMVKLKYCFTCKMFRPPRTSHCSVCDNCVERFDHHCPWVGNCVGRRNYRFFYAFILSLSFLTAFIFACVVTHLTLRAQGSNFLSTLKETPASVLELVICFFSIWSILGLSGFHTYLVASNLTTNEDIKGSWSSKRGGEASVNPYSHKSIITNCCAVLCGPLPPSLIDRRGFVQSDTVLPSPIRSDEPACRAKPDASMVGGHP
UniProt Q6NZY4: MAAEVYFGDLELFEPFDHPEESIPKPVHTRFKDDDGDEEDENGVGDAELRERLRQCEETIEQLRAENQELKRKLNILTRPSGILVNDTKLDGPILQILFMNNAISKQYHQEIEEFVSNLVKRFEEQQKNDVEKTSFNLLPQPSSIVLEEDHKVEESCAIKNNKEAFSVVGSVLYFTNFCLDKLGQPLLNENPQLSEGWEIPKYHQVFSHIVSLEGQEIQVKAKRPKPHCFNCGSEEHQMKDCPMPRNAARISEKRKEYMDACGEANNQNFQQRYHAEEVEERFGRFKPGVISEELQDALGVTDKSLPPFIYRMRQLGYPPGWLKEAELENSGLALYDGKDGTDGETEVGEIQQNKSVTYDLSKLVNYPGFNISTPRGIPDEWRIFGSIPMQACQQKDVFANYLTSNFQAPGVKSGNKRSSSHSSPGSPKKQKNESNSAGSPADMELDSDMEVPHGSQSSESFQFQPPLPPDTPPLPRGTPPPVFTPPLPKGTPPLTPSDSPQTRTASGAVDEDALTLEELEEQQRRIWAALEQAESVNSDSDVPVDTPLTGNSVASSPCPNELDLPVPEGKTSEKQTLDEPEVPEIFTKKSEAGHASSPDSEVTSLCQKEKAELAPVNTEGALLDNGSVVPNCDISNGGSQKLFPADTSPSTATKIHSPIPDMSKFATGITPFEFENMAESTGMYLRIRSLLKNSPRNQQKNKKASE
UniProt Q8IWT0: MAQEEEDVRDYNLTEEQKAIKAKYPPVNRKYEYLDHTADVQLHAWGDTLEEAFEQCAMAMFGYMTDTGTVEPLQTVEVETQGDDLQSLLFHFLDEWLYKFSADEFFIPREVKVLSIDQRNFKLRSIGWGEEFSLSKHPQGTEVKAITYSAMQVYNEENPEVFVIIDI
UniProt Q9H0D6: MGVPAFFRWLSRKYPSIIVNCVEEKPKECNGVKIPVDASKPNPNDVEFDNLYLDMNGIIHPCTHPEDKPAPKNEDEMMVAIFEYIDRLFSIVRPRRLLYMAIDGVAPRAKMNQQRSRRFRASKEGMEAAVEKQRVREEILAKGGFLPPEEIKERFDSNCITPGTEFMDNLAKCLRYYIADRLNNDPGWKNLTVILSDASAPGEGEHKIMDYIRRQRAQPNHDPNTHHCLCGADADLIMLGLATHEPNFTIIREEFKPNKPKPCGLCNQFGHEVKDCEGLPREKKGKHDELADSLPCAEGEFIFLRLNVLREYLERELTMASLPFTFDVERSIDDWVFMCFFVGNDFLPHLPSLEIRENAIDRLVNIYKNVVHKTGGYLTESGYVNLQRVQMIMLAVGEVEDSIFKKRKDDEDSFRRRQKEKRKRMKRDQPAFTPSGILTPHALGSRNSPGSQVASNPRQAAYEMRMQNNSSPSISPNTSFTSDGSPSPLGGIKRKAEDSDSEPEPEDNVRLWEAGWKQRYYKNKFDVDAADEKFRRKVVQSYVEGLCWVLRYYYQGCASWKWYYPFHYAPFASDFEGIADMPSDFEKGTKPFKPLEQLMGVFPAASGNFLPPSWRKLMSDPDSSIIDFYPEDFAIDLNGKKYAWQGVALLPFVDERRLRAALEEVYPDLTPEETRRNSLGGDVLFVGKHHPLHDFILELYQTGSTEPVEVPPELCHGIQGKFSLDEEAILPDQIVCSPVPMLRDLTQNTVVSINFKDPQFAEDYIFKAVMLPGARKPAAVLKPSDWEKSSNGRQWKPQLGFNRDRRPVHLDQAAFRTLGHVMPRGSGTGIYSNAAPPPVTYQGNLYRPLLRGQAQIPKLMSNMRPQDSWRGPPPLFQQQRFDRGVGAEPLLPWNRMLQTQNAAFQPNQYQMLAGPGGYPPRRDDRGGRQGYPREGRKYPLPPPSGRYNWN
UniProt Q7Z2W4: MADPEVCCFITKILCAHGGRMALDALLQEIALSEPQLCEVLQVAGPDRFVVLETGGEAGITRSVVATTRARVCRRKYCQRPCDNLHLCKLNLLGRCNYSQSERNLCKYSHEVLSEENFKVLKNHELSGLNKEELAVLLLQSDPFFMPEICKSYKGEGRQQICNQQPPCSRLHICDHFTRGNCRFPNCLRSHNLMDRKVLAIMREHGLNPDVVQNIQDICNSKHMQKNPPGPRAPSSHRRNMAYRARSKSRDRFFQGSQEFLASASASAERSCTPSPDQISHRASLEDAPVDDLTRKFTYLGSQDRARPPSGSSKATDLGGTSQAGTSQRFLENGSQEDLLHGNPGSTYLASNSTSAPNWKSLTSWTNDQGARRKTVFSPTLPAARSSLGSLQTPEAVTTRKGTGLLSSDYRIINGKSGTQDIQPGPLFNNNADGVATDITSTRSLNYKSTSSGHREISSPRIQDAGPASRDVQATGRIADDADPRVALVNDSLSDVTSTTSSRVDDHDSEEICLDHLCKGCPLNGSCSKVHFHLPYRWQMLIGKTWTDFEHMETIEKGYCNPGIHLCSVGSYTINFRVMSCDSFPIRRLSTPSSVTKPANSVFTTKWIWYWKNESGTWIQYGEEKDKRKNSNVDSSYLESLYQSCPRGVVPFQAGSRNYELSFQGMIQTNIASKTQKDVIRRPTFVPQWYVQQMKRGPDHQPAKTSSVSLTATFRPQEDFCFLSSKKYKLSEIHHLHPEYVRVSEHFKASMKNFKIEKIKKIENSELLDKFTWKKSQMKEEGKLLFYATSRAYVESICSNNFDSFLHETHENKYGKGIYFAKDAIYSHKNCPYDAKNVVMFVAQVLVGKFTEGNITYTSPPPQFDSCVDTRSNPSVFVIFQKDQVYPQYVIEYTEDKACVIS
UniProt Q96KR1: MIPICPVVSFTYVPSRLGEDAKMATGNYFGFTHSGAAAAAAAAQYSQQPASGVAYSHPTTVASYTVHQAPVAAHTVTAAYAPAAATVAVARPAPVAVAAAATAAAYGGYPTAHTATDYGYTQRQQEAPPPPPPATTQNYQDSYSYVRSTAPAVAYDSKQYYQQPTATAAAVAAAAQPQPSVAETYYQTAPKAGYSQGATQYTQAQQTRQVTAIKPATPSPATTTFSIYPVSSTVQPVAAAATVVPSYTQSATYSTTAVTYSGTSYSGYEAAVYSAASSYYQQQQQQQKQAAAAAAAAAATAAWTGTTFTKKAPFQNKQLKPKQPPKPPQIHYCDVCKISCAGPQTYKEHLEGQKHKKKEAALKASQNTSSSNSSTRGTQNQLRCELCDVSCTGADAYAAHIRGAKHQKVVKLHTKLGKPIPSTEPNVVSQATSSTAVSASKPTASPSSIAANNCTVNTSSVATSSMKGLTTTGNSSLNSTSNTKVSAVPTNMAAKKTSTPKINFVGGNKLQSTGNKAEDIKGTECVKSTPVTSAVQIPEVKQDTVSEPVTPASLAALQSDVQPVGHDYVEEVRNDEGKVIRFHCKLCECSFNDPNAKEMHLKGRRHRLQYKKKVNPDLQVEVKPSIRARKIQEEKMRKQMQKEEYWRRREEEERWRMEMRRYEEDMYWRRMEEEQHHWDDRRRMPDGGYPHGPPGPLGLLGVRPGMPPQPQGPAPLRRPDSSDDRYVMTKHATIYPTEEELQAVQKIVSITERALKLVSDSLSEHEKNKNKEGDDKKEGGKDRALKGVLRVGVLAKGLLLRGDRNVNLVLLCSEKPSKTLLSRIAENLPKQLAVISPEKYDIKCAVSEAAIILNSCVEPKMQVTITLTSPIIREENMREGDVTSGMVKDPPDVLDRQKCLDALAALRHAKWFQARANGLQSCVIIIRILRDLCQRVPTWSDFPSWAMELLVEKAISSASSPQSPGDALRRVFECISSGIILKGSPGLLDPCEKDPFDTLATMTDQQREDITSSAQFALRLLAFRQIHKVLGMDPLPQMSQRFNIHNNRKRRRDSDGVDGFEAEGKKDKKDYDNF
UniProt Q9HBF4: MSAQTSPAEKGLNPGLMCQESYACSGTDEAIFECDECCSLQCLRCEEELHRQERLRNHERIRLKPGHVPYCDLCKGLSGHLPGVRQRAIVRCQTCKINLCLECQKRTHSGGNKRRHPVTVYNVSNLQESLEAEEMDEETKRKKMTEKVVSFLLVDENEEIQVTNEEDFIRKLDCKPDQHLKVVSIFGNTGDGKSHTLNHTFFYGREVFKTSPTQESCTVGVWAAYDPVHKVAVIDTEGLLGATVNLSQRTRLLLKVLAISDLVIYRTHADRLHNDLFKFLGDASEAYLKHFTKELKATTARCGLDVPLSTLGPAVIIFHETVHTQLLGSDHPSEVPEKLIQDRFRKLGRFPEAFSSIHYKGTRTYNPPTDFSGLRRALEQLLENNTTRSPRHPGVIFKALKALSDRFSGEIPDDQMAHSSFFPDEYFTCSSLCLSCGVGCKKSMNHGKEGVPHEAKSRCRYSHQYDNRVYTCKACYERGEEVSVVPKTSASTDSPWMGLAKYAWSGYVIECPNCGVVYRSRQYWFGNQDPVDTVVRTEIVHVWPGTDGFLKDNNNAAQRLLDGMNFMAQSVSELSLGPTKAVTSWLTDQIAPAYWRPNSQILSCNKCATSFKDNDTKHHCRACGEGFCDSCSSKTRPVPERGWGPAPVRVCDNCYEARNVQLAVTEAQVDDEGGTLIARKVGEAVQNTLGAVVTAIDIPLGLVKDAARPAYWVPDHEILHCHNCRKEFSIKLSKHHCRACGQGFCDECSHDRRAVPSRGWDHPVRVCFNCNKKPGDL
UniProt Q9C0E2: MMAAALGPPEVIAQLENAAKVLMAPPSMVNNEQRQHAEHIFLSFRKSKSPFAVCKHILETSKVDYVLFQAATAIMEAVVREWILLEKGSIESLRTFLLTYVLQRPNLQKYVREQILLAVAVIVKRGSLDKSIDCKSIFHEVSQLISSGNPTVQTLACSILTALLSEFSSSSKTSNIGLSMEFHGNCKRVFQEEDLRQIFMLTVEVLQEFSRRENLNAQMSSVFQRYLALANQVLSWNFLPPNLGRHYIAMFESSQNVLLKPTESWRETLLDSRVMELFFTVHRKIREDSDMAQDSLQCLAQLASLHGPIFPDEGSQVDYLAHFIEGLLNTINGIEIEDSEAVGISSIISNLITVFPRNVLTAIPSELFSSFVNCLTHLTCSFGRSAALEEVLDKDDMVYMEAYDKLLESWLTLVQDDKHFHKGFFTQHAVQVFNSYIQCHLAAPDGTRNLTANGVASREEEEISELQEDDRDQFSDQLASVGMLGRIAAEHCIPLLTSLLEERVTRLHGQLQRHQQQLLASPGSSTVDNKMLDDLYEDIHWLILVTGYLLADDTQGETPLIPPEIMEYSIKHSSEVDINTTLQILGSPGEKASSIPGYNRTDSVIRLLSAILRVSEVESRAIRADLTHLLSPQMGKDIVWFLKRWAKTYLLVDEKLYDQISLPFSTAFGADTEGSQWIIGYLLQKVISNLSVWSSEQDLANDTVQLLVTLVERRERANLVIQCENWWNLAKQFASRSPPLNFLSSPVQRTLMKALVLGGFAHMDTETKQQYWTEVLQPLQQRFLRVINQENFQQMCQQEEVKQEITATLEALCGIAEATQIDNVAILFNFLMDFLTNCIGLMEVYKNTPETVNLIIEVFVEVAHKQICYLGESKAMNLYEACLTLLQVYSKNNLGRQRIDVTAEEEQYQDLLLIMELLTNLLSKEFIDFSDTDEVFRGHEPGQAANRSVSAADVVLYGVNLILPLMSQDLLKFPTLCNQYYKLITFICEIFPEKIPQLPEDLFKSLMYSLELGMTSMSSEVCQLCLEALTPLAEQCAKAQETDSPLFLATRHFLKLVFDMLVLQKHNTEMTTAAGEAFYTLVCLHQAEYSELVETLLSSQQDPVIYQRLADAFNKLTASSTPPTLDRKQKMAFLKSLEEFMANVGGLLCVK

Compound: Cc1cc(Nc2cc(N3CCN(C)CC3)nc(Sc3ccc(NC(=O)C4CC4)cc3)n2)n[nH]1 [tozasertib]
Assay: log2 fold change, soluble protein after heating vs DMSO (PISA); higher = thermal stabilisation; K562 cells, 10 uM, 30 min; active = over 0.2 and 3.5 SD of the protein, either way, in both replicates (recomputed)
How it was run: (§1)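 Soluble protein was quantified by TMTpro 16plex LC-MS/MS after channel sums were equalised. It was obtained as the supernatant after 21,000xg for 90 min from pooled aliquots of K562 cells (2×10^6 cells/mL, 10 μM compound, 30 min) heated for 3 min across 48°C-58°C and extracted in PBS with 0.5% NP-40 at 4°C. Thermal stability values are relative to control samples and come from duplicates. They are given as log2 fold changes.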

| Target | log2 fold change |
| --- | --- |
| ZNF24 (UniProt P17028) | inactive: 0.036 |
| ZFAND2B (UniProt Q8WV99) | inactive: -0.014 |
| YME1L1 (UniProt Q96TA2) | inactive: -0.015 |
| YIF1B (UniProt Q5BJH7) | inactive: -0.036 |
| YEATS4 (UniProt O95619) | inactive: -0.016 |
| YWHAH (UniProt Q04917) | inactive: 0.033 |
| YKT6 (UniProt O15498) | inactive: -0.005 |
| YTHDF2 (UniProt Q9Y5A9) | inactive: -0.002 |
| ZCCHC3 (UniProt Q9NUD5) | inactive: 0.027 |
| YJU2 (UniProt Q9BW85) | inactive: 0.025 |
| ZFYVE16 (UniProt Q7Z3T8) | inactive: -0.007 |
| ZFYVE19 (UniProt Q96K21) | inactive: -0.031 |
| YWHAE (UniProt P62258) | inactive: -0.021 |
| ZDHHC18 (UniProt Q9NUE0) | inactive: -0.02 |
| ZFYVE27 isoform 2 (UniProt Q5T4F4) | inactive: 0.042 |
| YARS2 (UniProt Q9Y2Z4) | inactive: -0.076 |
| YWHAG (UniProt P61981) | inactive: 0.023 |

| Target | log2 fold change |
| --- | --- |
| ZCCHC8 (UniProt Q6NZY4) | inactive: 0.002 |
| ZBTB8OS (UniProt Q8IWT0) | inactive: 0.017 |
| ZC3H4 (UniProt Q9UPT8) | inactive: -0.048 |
| XPR1 (UniProt Q9UBH6) | inactive: -0.034 |
| XPO7 (UniProt E7ESC6) | inactive: 0.026 |
| XRN2 (UniProt Q9H0D6) | inactive: -0.031 |
| ZC3HAV1 (UniProt Q7Z2W4) | inactive: 0.072 |
| YTHDF3 (UniProt Q7Z739) | inactive: 0.001 |
| YDJC (UniProt A8MPS7) | inactive: -0.014 |
| YIPF3 (UniProt Q9GZM5) | inactive: 0.049 |
| XXYLT1 (UniProt Q8NBI6) | inactive: 0.014 |
| ZFR (UniProt Q96KR1) | inactive: -0.023 |
| YARS (UniProt P54577) | inactive: 0.032 |
| ZFYVE1 (UniProt Q9HBF4) | inactive: 0.018 |
| XPO4 (UniProt Q9C0E2) | inactive: 0.053 |
| YRDC (UniProt Q86U90) | inactive: -0.006 |
| ZNF148 (UniProt Q9UQR1) | inactive: -0.052 |

Compound: Cc1cc(SCc2sc(-c3ccc(C(F)(F)F)cc3)nc2C)ccc1OCC(=O)O
Assay: as above
How it was run: as §1

| Target | log2 fold change |
| --- | --- |
| ZNF24 (UniProt P17028) | inactive: 0.03 |
| ZFAND2B (UniProt Q8WV99) | inactive: -0.034 |
| YME1L1 (UniProt Q96TA2) | inactive: -0.024 |
| YIF1B (UniProt Q5BJH7) | inactive: 0.053 |
| YEATS4 (UniProt O95619) | inactive: -0.058 |
| YWHAH (UniProt Q04917) | inactive: 0.019 |
| YKT6 (UniProt O15498) | inactive: -0.008 |
| YTHDF2 (UniProt Q9Y5A9) | inactive: 0.034 |
| ZCCHC3 (UniProt Q9NUD5) | inactive: -0.022 |
| YJU2 (UniProt Q9BW85) | inactive: 0.028 |
| ZFYVE16 (UniProt Q7Z3T8) | inactive: 0.012 |
| ZFYVE19 (UniProt Q96K21) | inactive: -0.023 |
| YWHAE (UniProt P62258) | inactive: -0.06 |
| ZDHHC18 (UniProt Q9NUE0) | inactive: -0.103 |
| ZFYVE27 isoform 2 (UniProt Q5T4F4) | inactive: -0.015 |
| YARS2 (UniProt Q9Y2Z4) | inactive: 0.072 |
| YWHAG (UniProt P61981) | inactive: -0.016 |

| Target | log2 fold change |
| --- | --- |
| ZCCHC8 (UniProt Q6NZY4) | inactive: 0.029 |
| ZBTB8OS (UniProt Q8IWT0) | inactive: 0.037 |
| ZC3H4 (UniProt Q9UPT8) | inactive: -0.008 |
| XPR1 (UniProt Q9UBH6) | inactive: 0.003 |
| XPO7 (UniProt E7ESC6) | inactive: -0.012 |
| XRN2 (UniProt Q9H0D6) | inactive: 0.006 |
| ZC3HAV1 (UniProt Q7Z2W4) | inactive: 0.18 |
| YTHDF3 (UniProt Q7Z739) | inactive: 0.039 |
| YDJC (UniProt A8MPS7) | inactive: 0.094 |
| YIPF3 (UniProt Q9GZM5) | inactive: -0.028 |
| XXYLT1 (UniProt Q8NBI6) | inactive: 0.028 |
| ZFR (UniProt Q96KR1) | inactive: 0 |
| YARS (UniProt P54577) | inactive: 0.066 |
| ZFYVE1 (UniProt Q9HBF4) | inactive: 0.003 |
| XPO4 (UniProt Q9C0E2) | inactive: 0 |
| YRDC (UniProt Q86U90) | inactive: -0.013 |
| ZNF148 (UniProt Q9UQR1) | inactive: -0.055 |

Compound: Cc1ccc(-n2nc(C(C)(C)C)cc2NC(=O)Nc2ccc(OCCN3CCOCC3)c3ccccc23)cc1 [doramapimod]
Assay: as above
How it was run: as §1

| Target | log2 fold change |
| --- | --- |
| ZNF24 (UniProt P17028) | inactive: 0.165 |
| ZFAND2B (UniProt Q8WV99) | inactive: 0.01 |
| YME1L1 (UniProt Q96TA2) | inactive: 0.003 |
| YIF1B (UniProt Q5BJH7) | inactive: 0.018 |
| YEATS4 (UniProt O95619) | inactive: 0.041 |
| YWHAH (UniProt Q04917) | inactive: -0.075 |
| YKT6 (UniProt O15498) | inactive: -0.033 |
| YTHDF2 (UniProt Q9Y5A9) | inactive: -0.018 |
| ZCCHC3 (UniProt Q9NUD5) | inactive: -0.058 |
| YJU2 (UniProt Q9BW85) | inactive: -0.026 |
| ZFYVE16 (UniProt Q7Z3T8) | inactive: 0.031 |
| ZFYVE19 (UniProt Q96K21) | inactive: -0.005 |
| YWHAE (UniProt P62258) | inactive: -0.014 |
| ZDHHC18 (UniProt Q9NUE0) | inactive: -0.017 |
| ZFYVE27 isoform 2 (UniProt Q5T4F4) | inactive: -0.175 |
| YARS2 (UniProt Q9Y2Z4) | inactive: 0.092 |
| YWHAG (UniProt P61981) | inactive: -0.027 |

| Target | log2 fold change |
| --- | --- |
| ZCCHC8 (UniProt Q6NZY4) | inactive: -0.014 |
| ZBTB8OS (UniProt Q8IWT0) | inactive: 0.039 |
| ZC3H4 (UniProt Q9UPT8) | inactive: 0.081 |
| XPR1 (UniProt Q9UBH6) | inactive: 0.016 |
| XPO7 (UniProt E7ESC6) | inactive: -0.049 |
| XRN2 (UniProt Q9H0D6) | inactive: 0 |
| ZC3HAV1 (UniProt Q7Z2W4) | inactive: 0.177 |
| YTHDF3 (UniProt Q7Z739) | inactive: -0.005 |
| YDJC (UniProt A8MPS7) | inactive: -0.032 |
| YIPF3 (UniProt Q9GZM5) | inactive: -0.05 |
| XXYLT1 (UniProt Q8NBI6) | inactive: 0.045 |
| ZFR (UniProt Q96KR1) | inactive: 0.07 |
| YARS (UniProt P54577) | inactive: 0.041 |
| ZFYVE1 (UniProt Q9HBF4) | inactive: 0.022 |
| XPO4 (UniProt Q9C0E2) | inactive: -0.036 |
| YRDC (UniProt Q86U90) | inactive: -0.008 |
| ZNF148 (UniProt Q9UQR1) | inactive: -0.012 |
